# Test results published in the supplement of paper PMC12819154, “High-throughput peptide-centric local stability assay extends protein–ligand identification to membrane proteins, tissues and bacteria” (Nature Structural & Molecular Biology, 2025).
# By UniProt entry, the sequences of proteins in these tests, tags left out. Where a name states a change or a piece, a line headed by the entry shows the natural chain unless it says otherwise.
# UniProt Q6TDU7: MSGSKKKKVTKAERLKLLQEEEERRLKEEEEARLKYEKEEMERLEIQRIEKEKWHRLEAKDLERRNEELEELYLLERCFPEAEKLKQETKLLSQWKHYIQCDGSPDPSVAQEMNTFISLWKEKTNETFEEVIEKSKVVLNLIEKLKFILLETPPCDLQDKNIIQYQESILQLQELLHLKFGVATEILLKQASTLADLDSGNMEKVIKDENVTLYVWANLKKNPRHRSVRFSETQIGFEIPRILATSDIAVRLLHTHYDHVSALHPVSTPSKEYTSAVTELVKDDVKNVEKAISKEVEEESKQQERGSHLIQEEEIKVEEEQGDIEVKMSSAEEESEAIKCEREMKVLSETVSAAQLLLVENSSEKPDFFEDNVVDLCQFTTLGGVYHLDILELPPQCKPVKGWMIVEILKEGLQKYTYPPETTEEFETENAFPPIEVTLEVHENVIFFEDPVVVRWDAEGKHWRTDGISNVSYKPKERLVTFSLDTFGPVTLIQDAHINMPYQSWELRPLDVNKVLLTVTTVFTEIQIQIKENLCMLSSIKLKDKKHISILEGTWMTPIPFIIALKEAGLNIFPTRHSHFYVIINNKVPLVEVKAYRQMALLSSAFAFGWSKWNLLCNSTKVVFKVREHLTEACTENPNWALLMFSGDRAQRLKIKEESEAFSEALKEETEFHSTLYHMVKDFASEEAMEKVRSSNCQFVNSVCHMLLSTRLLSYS
# UniProt Q6IN84: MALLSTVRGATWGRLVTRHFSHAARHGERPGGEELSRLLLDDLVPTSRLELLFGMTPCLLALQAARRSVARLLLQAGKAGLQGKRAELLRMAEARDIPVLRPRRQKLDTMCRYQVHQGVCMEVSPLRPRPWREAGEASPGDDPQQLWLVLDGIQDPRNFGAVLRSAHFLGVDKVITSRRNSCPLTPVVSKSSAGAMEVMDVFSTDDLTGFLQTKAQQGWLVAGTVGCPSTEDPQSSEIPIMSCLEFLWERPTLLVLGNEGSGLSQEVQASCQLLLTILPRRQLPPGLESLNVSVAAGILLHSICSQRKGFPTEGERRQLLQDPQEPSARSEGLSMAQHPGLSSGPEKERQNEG
# UniProt Q658Y4: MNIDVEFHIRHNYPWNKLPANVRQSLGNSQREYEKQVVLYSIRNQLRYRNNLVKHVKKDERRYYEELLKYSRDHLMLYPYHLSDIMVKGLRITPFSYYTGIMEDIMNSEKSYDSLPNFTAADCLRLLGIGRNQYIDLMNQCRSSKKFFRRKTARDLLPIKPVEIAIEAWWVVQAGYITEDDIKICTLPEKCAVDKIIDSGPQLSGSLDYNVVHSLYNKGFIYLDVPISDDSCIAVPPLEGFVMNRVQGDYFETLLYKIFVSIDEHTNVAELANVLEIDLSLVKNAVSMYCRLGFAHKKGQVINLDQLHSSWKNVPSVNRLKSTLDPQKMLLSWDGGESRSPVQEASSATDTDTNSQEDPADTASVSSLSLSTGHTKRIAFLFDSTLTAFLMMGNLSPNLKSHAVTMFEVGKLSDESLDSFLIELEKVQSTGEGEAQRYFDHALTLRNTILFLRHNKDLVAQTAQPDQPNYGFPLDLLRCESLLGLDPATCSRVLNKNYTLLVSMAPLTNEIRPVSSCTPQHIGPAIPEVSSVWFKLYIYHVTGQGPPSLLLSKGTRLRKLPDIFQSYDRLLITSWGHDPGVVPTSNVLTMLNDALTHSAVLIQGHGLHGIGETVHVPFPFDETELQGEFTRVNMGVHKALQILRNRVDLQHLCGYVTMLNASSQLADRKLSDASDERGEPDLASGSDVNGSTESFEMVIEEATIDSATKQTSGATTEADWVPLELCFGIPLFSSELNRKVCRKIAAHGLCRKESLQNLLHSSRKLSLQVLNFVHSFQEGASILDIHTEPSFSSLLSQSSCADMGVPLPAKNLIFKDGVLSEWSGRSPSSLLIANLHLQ
# UniProt Q6P158: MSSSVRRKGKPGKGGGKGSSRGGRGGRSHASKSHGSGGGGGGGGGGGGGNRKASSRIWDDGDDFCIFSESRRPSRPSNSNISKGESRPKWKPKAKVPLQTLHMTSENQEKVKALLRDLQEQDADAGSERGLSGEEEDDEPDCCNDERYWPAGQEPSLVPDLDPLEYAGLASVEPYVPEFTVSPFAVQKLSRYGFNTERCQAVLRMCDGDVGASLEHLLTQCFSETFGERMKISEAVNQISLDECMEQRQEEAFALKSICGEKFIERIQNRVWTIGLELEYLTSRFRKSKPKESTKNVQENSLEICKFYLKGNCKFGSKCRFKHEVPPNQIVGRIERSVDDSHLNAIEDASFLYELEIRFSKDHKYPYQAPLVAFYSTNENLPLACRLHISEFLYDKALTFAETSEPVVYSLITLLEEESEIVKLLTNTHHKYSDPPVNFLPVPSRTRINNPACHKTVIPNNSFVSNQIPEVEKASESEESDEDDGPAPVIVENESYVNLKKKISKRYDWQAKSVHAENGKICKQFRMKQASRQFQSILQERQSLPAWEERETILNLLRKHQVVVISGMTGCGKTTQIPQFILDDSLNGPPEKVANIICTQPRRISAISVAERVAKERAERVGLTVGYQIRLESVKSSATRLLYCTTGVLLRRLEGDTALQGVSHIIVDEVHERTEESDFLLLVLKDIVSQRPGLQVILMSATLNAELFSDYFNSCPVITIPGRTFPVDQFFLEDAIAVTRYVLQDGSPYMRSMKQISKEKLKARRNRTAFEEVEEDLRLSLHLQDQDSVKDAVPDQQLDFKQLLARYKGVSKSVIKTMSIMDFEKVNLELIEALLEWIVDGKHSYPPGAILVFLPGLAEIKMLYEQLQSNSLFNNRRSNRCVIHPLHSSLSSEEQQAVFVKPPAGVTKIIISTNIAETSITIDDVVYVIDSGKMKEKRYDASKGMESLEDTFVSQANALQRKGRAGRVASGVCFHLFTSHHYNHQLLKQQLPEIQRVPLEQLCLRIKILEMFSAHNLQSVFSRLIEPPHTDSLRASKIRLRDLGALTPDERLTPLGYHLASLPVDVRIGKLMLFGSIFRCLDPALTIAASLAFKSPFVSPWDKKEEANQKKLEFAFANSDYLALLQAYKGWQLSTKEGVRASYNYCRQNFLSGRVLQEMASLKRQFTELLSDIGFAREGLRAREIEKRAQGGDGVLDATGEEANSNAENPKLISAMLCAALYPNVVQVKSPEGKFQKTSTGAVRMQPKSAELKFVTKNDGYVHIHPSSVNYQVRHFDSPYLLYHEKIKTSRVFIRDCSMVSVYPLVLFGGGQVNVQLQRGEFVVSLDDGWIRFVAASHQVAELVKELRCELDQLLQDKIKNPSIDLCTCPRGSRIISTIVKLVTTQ
# UniProt Q69YL0: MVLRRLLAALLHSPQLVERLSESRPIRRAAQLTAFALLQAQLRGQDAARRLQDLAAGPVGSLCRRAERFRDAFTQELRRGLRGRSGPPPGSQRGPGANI
# UniProt Q68D10: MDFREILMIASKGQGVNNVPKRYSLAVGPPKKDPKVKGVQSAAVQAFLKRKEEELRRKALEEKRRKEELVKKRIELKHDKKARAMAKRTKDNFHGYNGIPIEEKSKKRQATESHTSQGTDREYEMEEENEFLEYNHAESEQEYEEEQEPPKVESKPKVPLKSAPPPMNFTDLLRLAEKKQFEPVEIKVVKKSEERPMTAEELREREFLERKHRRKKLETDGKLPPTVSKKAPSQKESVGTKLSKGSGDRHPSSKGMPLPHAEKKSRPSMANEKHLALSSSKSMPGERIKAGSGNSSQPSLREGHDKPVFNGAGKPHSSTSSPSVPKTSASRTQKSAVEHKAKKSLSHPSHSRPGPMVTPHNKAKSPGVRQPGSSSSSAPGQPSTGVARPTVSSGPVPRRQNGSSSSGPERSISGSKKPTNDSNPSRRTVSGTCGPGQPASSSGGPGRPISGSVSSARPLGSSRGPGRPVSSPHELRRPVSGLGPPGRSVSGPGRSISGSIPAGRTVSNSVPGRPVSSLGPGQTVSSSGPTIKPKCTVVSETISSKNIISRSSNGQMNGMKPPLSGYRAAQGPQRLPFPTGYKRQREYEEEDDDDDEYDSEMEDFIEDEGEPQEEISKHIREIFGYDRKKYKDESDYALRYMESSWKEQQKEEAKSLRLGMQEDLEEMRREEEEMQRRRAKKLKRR
# UniProt Q5VYS8: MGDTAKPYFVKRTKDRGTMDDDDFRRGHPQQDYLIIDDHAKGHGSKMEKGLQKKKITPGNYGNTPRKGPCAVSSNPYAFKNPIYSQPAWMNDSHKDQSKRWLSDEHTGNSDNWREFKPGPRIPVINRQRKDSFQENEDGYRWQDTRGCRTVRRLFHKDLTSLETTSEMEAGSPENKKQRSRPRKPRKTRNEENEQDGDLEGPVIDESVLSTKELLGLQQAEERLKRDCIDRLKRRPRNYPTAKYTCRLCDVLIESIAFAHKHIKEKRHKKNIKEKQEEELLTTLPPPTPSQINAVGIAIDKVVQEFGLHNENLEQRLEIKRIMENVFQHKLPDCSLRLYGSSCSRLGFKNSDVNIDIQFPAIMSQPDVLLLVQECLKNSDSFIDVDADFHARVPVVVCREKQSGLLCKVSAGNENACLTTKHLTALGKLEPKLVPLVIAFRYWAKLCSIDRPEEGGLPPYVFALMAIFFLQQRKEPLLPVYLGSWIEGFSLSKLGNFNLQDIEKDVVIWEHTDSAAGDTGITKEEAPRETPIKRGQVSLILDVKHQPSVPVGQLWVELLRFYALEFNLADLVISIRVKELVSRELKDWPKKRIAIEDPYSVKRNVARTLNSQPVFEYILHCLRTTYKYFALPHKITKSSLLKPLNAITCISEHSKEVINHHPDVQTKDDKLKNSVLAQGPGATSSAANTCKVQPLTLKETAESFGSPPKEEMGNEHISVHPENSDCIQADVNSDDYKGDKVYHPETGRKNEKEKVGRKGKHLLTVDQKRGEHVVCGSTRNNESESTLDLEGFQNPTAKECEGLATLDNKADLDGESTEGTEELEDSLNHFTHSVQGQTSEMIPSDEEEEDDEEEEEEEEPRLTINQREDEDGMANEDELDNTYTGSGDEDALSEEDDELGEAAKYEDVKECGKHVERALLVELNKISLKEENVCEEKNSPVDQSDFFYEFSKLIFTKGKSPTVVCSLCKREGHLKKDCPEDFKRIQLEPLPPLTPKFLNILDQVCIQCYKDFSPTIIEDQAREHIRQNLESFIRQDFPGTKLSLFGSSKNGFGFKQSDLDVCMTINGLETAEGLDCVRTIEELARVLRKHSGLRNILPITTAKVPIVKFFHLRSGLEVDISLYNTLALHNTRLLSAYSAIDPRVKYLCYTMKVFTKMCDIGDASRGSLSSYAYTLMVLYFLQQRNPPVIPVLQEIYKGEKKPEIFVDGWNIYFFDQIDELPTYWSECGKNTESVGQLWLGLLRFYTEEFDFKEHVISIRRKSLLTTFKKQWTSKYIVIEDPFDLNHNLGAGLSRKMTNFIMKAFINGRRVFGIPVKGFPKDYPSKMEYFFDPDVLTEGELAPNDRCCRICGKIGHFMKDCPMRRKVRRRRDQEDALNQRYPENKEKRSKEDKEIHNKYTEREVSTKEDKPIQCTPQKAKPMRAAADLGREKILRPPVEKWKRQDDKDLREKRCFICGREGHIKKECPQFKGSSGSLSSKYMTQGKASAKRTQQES
# UniProt Q6PI47: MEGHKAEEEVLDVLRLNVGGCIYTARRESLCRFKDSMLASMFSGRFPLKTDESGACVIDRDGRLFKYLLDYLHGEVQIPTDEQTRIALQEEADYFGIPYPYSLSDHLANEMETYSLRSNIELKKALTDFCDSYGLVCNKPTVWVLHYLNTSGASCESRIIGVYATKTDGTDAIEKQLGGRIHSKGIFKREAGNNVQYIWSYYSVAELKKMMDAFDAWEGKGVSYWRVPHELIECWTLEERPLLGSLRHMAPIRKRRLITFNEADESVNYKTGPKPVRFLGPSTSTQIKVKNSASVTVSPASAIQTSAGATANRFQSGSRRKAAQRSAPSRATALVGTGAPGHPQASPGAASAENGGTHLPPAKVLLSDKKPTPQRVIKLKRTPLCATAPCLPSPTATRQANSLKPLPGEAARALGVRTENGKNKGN
# Some of the results follow. Most values lie at the level of the controls, where differences are scatter.
# Compound: Cc1nc(Nc2ncc(C(=O)Nc3c(C)cccc3Cl)s2)cc(N2CCN(CCO)CC2)n1 [dasatinib]
# Assay: log2 fold change of tryptic peptide abundance, ligand vs vehicle (limited proteolysis) (log2 ratio); higher = more trypsin-susceptible (destabilized)
# Conditions: ligand concentration: 5 uM; sample: K562 cleared lysate
row,Target,log2 fold change
1,"CASC1 (peptide sequence: LLQEEEER, peptide start residue: 377) (UniProt Q6TDU7)",-0.0204
2,"MRM1 (peptide sequence: SEGLSMAQHPGLSSGPEK, peptide start residue: 330) (UniProt Q6IN84)",0.0905
3,"FAM91A1 (peptide sequence: LKSTLDPQK, peptide start residue: 320) (UniProt Q658Y4)",-0.487
4,"DHX57 (peptide sequence: FVAASHQVAELVK, peptide start residue: 1333) (UniProt Q6P158)",-0.333
5,"NCBP2AS2 (peptide sequence: SGPPPGSQR, peptide start residue: 85) (UniProt Q69YL0)",0.188
6,"SPTY2D1 (peptide sequence: QATESHTSQGTDR, peptide start residue: 109) (UniProt Q68D10)",0.93
7,"RPL22L1 (peptide sequence: TGNLGNVVHIER, peptide start residue: 48) (UniProt Q6P5R6)",0.179
8,"UniProt Q5VYS8 (peptide sequence: NPIYSQPAWMNDSHK, peptide start residue: 81)",0.387
9,"UniProt Q6PI47 (peptide sequence: VLLSDKKPTPQR, peptide start residue: 364)",0.555
